In US10450346B2, “Immunotherapy against several tumors of the blood, in particular chronic lymphoid leukemia (CLL)” (Immatics biotechnologies GmbH, priority 2014, dated 2019):

B1: chromosome X open reading frame 21 (protein, UniProt Q9HAI6 1-301, looked up)
TLR adapter interacting with …: MLSEGYLSGLEYWNDIHWSCASYNEQVAGEKEEETNSVATLSYSSVDETQVRSLYVSCKSSGKFISSVHSRESQHSRSQRVTVLQTNPNPVFESPNLAAVEICRDASRETYLVPSSCKSICKNYNDLQIAGGQVMAINSVTTDFPSESSFEYGPLLKSSEIPLPMEDSISTQPSDFPQKPIQRYSSYWRITSIKEKSSLQMQNPISNAVLNEYLEQKVVELYKQYIMDTVFHDSSPTQILASELIMTSVDQISLQVSREKNLETSKARDIVFSRLLQLMSTEITEISTPSLHISQYSNVNP
notes: LiTAA source protein
B2: cordon-bleu WH2 repeat protein-like 1 (protein, UniProt Q53SF7 1-1128, looked up)
Cordon-bleu protein-like 1: MDGRTPRPQDAPARRKPKAKAPLPPAETKYTDVSSAADSVESTAFIMEQKENMIDKDVELSVVLPGDIIKSTTVHGSKPMMDLLIFLCAQYHLNPSSYTIDLLSAEQNHIKFKPNTPIGMLEVEKVILKPKMLDKKKPTPIIPEKTVRVVINFKKTQKTIVRVSPHASLQELAPIICSKCEFDPLHTLLLKDYQSQEPLDLTKSLNDLGLRELYAMDVNRESCQISQNLDIMKEKENKGFFSFFQRSKKKRDQTASAPATPLVNKHRPTFTRSNTISKPYISNTLPSDAPKKRRAPLPPMPASQSVPQDLAHIQERPASCIVKSMSVDETDKSPCEAGRVRAGSLQLSSMSAGNSSLRRTKRKAPSPPSKIPPHQSDENSRVTALQPVDGVPPDSASEANSPEELSSPAGISSDYSLEEIDEKEELSEVPKVEAENISPKSQDIPFVSTDIINTLKNDPDSALGNGSGEFSQNSMEEKQETKSTDGQEPHSVVYDTSNGKKVVDSIRNLKSLGPNQENVVQNEIIVYPENTEDNMKNGVKKTEINVEGVAKNNNIDMEVERPSNSEAHETDTAISYKENHLAASSVPDQKLNQPSAEKTKDAAIQTTPSCNSFDGKHQDHNLSDSKVEECVQTSNNNISTQHSCLSSQDSVNTSREFRSQGTLIIHSEDPLTVKDPICAHGNDDLLPPVDRIDKNSTASYLKNYPLYRQDYNPKPKPSNEITREYIPKIGMTTYKIVPPKSLEISKDWQSETIEYKDDQDMHALGKKHTHENVKETAIQTEDSAISESPEEPLPNLKPKPNLRTEHQVPSSVSSPDDAMVSPLKPAPKMTRDTGTAPFAPNLEEINNILESKFKSRASNAQAKPSSFFLQMQKRVSGHYVTSAAAKSVHAAPNPAPKELTNKEAERDMLPSPEQTLSPLSKMPHSVPQPLVEKTDDDVIGQAPAEASPPPIAPKPVTIPASQVSTQNLKTLKTFGAPRPYSSSGPSPFALAVVKRSQSFSKERTESPSASALVQPPANTEEGKTHSVNKFVDIPQLGVSDKENNSAHNEQNSQIPTPTDGPSFTVMRQSSLTFQSSDPEQMRQSLLTAIRSGEAAAKLKRVTIPSNTISVNGRSRLSHSMSPDAQDGH
notes: LiTAA source protein
B3: cytoskeleton-associated protein 4 (protein, UniProt Q07065 1-602, looked up)
Cytoskeleton-associated …: MPSAKQRGSKGGHGAASPSEKGAHPSGGADDVAKKPPPAPQQPPPPPAPHPQQHPQQHPQNQAHGKGGHRGGGGGGGKSSSSSSASAAAAAAAASSSASCSRRLGRALNFLFYLALVAAAAFSGWCVHHVLEEVQQVRRSHQDFSRQREELGQGLQGVEQKVQSLQATFGTFESILRSSQHKQDLTEKAVKQGESEVSRISEVLQKLQNEILKDLSDGIHVVKDARERDFTSLENTVEERLTELTKSINDNIAIFTEVQKRSQKEINDMKAKVASLEESEGNKQDLKALKEAVKEIQTSAKSREWDMEALRSTLQTMESDIYTEVRELVSLKQEQQAFKEAADTERLALQALTEKLLRSEESVSRLPEEIRRLEEELRQLKSDSHGPKEDGGFRHSEAFEALQQKSQGLDSRLQHVEDGVLSMQVASARQTESLESLLSKSQEHEQRLAALQGRLEGLGSSEADQDGLASTVRSLGETQLVLYGDVEELKRSVGELPSTVESLQKVQEQVHTLLSQDQAQAARLPPQDFLDRLSSLDNLKASVSQVEADLKMLRTAVDSLVAYSVKIETNENNLESAKGLLDDLRNDLDRLFVKVEKIHEKV
notes: LiTAA source protein
B4: Ras protein-specific guanine nucleotide-releasing factor 1 (protein, UniProt Q13972 1-1273, looked up)
Ras-specific guanine …: MQKGIRLNDGHVASLGLLARKDGTRKGYLSKRSSDNTKWQTKWFALLQNLLFYFESDSSSRPSGLYLLEGCVCDRAPSPKPALSAKEPLEKQHYFTVNFSHENQKALELRTEDAKDCDEWVAAIAHASYRTLATEHEALMQKYLHLLQIVETEKTVAKQLRQQIEDGEIEIERLKAEITSLLKDNERIQSTQTVAPNDEDSDIKKIKKVQSFLRGWLCRRKWKTIIQDYIRSPHADSMRKRNQVVFSMLEAEAEYVQQLHILVNNFLRPLRMAASSKKPPITHDDVSSIFLNSETIMFLHQIFYQGLKARISSWPTLVLADLFDILLPMLNIYQEFVRNHQYSLQILAHCKQNRDFDKLLKHYEAKPDCEERTLETFLTYPMFQIPRYILTLHELLAHTPHEHVERNSLDYAKSKLEELSRIMHDEVSETENIRKNLAIERMIIEGCEILLDTSQTFVRQGSLIQVPMSEKGKITRGRLGSLSLKKEGERQCFLFSKHLIICTRGSGGKLHLTKNGVISLIDCTLLEEPESTEEEAKGSGQDIDHLDFKIGVEPKDSPPFTVILVASSRQEKAAWTSDISQCVDNIRCNGLMMNAFEENSKVTVPQMIKRTREGTREAEMSRSDASLYCDDVDIRFSKTMNSCKVLQIRYASVERLLERLTDLRFLSIDFLNTFLHSYRVFTTAIVVLDKLITIYKKPISAIPARWLRSLELLFASGQNNKLLYGEPPKSPRATRKFSSPPPLSITKTSSPSRRRKLSLNIPIITGGKALDLAALSCNSNGYTSMYSAMSPFSKATLDTSKLYVSSSFTNKIPDEGDTTPEKPEDPSALSKQSSEVSMREESDIDQNQSDDGDTETSPTKSPTTPKSVKNKNSSEFPLFSYNNGVVMTSCRELDNNRSALSAASAFAIATAGANEGTPNKEKYRRMSLASAGFPPDQRNGDKEFVIRRAATNRVLNVLRHWVSKHSQDFETNDELKCKVIGFLEEVMHDPELLTQERKAAANIIRTLTQEDPGDNQITLEEITQMAEGVKAEPFENHSALEIAEQLTLLDHLVFKKIPYEEFFGQGWMKLEKNERTPYIMKTTKHFNDISNLIASEIIRNEDINARVSAIEKWVAVADICRCLHNYNAVLEITSSMNRSAIFRLKKTWLKVSKQTKALIDKLQKLVSSEGRFKNLREALKNCDPPCVPYLGMYLTDLAFIEEGTPNYTEDGLVNFSKMRMISHIIREIRQFQQTAYKIEHQAKVTQYLLDQSFVMDEESLYESSLRIEPKLPT
notes: LiTAA source protein
B5: ubiquitin-like 7 (protein, UniProt Q96S82 1-380, looked up)
Ubiquitin-like protein 7: MSLSDWHLAVKLADQPLTPKSILRLPETELGEYSLGGYSISFLKQLIAGKLQESVPDPELIDLIYCGRKLKDDQTLDFYGIQPGSTVHVLRKSWPEPDQKPEPVDKVAAMREFRVLHTALHSSSSYREAVFKMLSNKESLDQIIVATPGLSSDPIALGVLQDKDLFSVFADPNMLDTLVPAHPALVNAIVLVLHSVAGSAPMPGTDSSSRSMPSSSYRDMPGGFLFEGLSDDEDDFHPNTRSTPSSSTPSSRPASLGYSGAAGPRPITQSELATALALASTPESSSHTPTPGTQGHSSGTSPMSSGVQSGTPITNDLFSQALQHALQASGQPSLQSQWQPQLQQLRDMGIQDDELSLRALQATGGDIQAALELIFAGGAP
notes: LiTAA source protein
B6: transmembrane emp24 protein transport domain containing 4 (protein, UniProt Q7Z7H5 30-227, looked up)
Transmembrane emp24 …: LYFHIGETEKRCFIEEIPDETMVIGNYRTQMWDKQKEVFLPSTPGLGMHVEVKDPDGKVVLSRQYGSEGRFTFTSHTPGDHQICLHSNSTRMALFAGGKLRVHLDIQVGEHANNYPEIAAKDKLTELQLRARQLLDQVEQIQKEQDYQRYREERFRLTSESTNQRVLWWSIAQTVILILTGIWQMRHLKSFFEAKKLV
notes: LiTAA source protein

System: primary CLL samples (PBMC from CLL patients), HLA class I ligands
Experiment: HLA class I ligandome analysis by LC-MS/MS (frequency of HLA restricted presentation)
Parameters: species or system human
Conditions: CLL patient HLA class I ligandomes (n = 30)

Row | Molecule | Number of positive CLLs
1 | B1 | 6
2 | B2 | 6
3 | B3 | 6
4 | B4 | 12
5 | B5 | 6
6 | B6 | 6

Same assay, conditions: source protein (LiTAA) representation in CLL patient HLA class I ligandomes (n = 30)

Row | Molecule | Number of positive CLLs (frequency [%]) [%]
7 | B1 | 20.0
8 | B2 | 20.0
9 | B3 | 20.0
10 | B4 | 40.0
11 | B5 | 20.0
12 | B6 | 20.0
